Source: patent publication US11231416B2, “Virus-like particle (VLP) based small molecule-protein interaction trap” (VIB VZW, priority 2015, dated 2022)
For at least one compound, name, drawing or mass did not settle the structure.

By UniProt entry, the sequences of proteins in these tests, tags left out. Where a name states a change or a piece, a line headed by the entry shows the natural chain unless it says otherwise.
UniProt Q14534: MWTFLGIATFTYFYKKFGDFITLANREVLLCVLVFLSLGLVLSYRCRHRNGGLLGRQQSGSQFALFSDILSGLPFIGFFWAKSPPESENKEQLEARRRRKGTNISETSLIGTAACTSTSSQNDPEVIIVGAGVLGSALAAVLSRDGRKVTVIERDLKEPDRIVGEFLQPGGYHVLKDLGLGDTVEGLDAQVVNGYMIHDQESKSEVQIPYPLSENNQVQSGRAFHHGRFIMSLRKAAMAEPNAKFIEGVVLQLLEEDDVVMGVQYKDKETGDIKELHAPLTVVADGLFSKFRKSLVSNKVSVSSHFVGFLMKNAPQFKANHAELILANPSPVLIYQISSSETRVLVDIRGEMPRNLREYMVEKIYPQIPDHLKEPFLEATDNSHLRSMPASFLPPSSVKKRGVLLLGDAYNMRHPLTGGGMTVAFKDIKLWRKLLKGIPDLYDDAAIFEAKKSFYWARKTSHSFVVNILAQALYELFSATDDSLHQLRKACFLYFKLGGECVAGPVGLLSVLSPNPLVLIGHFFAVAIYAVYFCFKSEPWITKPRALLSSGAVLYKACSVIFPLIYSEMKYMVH

Tests used:
[1] = molecular target: T1, SQLE (Homo sapiens, UniProt Q14534); experiment: Viral trapping in VLPs, MS analysis; type: binding; details: proteins identified with >1 peptide (high confidence)
T1 construct: endogenous in cells; host or cells: HEK293T
Protocol: (§1) To screen for simvastatin binders, cells were transfected with the GAG-eDHFR construct and then treated immediately after transfection with the MTX-PEG6-simvastatin molecule. A total of five biological repeats were performed together with four DMSO control experiments. The list of candidate interactors was obtained after removal of all proteins (including proteins identified with a single peptide) that were found in 19 control samples, the four DMSO samples and the other small molecule samples (e.g., the protein list of the five simvastatin samples was challenged against a total of 29 samples). The control samples are a number of successful Virotrap experiments using unrelated proteins to generate a list of proteins that can be considered background proteins, and that can be subtracted from the protein list obtained for the actual samples.
(§2) For each small molecule condition, two lists of proteins (annotated by their gene name) were reported. The left part of the tables (“All proteins”) contains all unique protein identifications (thus also proteins identified with a single peptide) obtained after removal of the background proteins. The right part of the tables (“Proteins identified with >1 peptide”) contains only the proteins identified with high confidence (at least two modified peptide identifications for each protein). […]

[2] = molecular target: T2, UBIAD1 (Homo sapiens, UniProt Q9Y5Z9); experiment: Viral trapping in VLPs, MS analysis; type: binding; details: proteins identified with >1 peptide (high confidence)
T2 construct: endogenous in cells; host or cells: HEK293T
T2 sequence (Q9Y5Z9 1-338): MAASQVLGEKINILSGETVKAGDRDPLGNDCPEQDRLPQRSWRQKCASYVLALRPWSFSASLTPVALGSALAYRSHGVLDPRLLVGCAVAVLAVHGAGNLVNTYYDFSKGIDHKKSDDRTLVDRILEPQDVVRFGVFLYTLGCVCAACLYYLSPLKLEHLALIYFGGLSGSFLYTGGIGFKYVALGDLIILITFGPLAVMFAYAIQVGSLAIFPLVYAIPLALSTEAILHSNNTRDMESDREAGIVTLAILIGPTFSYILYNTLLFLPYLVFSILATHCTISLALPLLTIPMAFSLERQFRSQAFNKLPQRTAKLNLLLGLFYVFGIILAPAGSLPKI
Protocol: as §1, §2

SMILES: CCC(C)(C)C(=O)O[C@H]1C[C@@H](C)C=C2C=C[C@H](C)[C@H](CC[C@@H]3C[C@@H](O)CC(=O)O3)[C@H]21 [simvastatin, reference compound]
- Recurrence (x/5) [1]: three
- Recurrence (x/5) [2]: one
